Assay results from the supplement of paper PMC8326762, “A Small Molecule Inhibitor of Pex3–Pex19 Interaction Disrupts Glycosome Biogenesis and Causes Lethality in Trypanosoma brucei” (Frontiers in Cell and Developmental Biology, 2021).
Where a name gives a salt, the structure may show the parent alone. Some of the results follow. Single values of this set are uncertain.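 Yeast growth was read as optical density at 600 nm. The two-hybrid strains grew without histidine, so growth needed the Pex3–Pex19 binding; a compound counted as trypanosome-selective if it cut growth of the trypanosome-pair strain by more than 65% and the human-pair strain by less than 65%.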

Legend:
[1] = test system: Saccharomyces cerevisiae HF7c pdr5Δ; test: general growth inhibition of yeast HF7c pdr5Δ in -Leu -Trp medium, relative to DMSO; higher = stronger general growth inhibition; conditions: 100 µM; 24 h
[2] = test system: human PEX3-PEX19 interaction (yeast two-hybrid); test: growth inhibition of yeast two-hybrid strain reporting HsPex3-HsPex19 interaction, relative to DMSO; higher = stronger inhibition of human Pex3-Pex19 interaction / growth; conditions: 100 µM; 24 h; 3-aminotriazole 10 mM
[3] = test system: T. brucei Pex3-Pex19 interaction (yeast two-hybrid); test: growth inhibition of yeast two-hybrid strain reporting TbPex3-TbPex19 interaction, relative to DMSO; higher = stronger inhibition of T. brucei Pex3-Pex19 interaction / growth; conditions: 100 µM; 24 h

Compound | general growth inhibition [1] [%] | growth inhibition [2] [%] | growth inhibition [3] [%]
CCCCCCNC(=O)n1cc(F)c(=O)[nH]c1=O [Carmofur] | 76 | 53.8 | 67.3
NCCCCCC(=O)O [6-Aminohexanoic acid] | 19.7 | 11.4 | 33.5
NC(N)=NC(=O)c1nc(Cl)c(N2CCCCCC2)nc1N [5-(N,N-hexamethylene)amiloride] | 41.2 | 35.7 | 56.9
N[C@@H]1[C@H]2CN(c3nc4c(cc3F)c(=O)c(C(=O)O)cn4-c3ccc(F)cc3F)C[C@@H]12 [Trovafloxacin mesylate] | 47.6 | 39.5 | 63
CC#CCOC(=O)c1c(C)nc2sc3c(c2c1N)CCC(O)C3 (stereo not drawn) | 39.8 | 35.3 | 56.4
OCCN(CCO)c1nc(N2CCCCC2)c2nc(N(CCO)CCO)nc(N3CCCCC3)c2n1 [Dipyridamole] | 33.2 | 23.5 | 51.2
CN(C)c1nc(N)c(C(=O)NC(=N)N)nc1Cl [5-(N,N-Dimethyl)amiloride hydrochloride] | 37.6 | 44.2 | 63.3
Cn1ccnc1 [1-Methylimidazole] | 51.2 | 38.9 | 61.4
CC(=O)NCCc1c[nH]c2ccc(O)cc12 [N-Acetyl-5-hydroxytryptamine] | 48.4 | 42.1 | 58.7
COc1ccc(Br)cc1S(=O)(=O)NC(=O)/C=C/c1ccccc1Cc1ccc2ccccc2c1 | 36.5 | 21.2 | 20.9
CCCNC(=O)NS(=O)(=O)c1ccc(Cl)cc1 [Chlorpropamide] | 32 | 39.7 | 50.8
CCN[C@H]1CN(CCCOC)S(=O)(=O)c2sc(S(N)(=O)=O)cc21 [Brinzolamide] | 54.5 | 58.5 | 58
CC(C(=O)O)c1cccc(C(=O)c2ccccc2)c1 (stereo not drawn) [Ketoprofen] | 42.6 | 37.3 | 60.6
Cc1nnc(SCC2=C(C(=O)O)N3C(=O)[C@@H](NC(=O)Cn4cnnn4)[C@H]3SC2)s1 [Cefazolin sodium] | 39.6 | 39 | 60.4
Fc1ccc(C(OCCCc2cnc[nH]2)c2ccc(F)cc2)cc1 | 40.9 | 40.7 | 68.6
O=C(Nc1nc2ccccc2n1CCN1CCOCC1)c1cccc([N+](=O)[O-])c1 [IRAK-1/4 Inhibitor I] | 18.8 | -4.05 | 39.8
NC(=O)c1cnccn1 [Pyrazinecarboxamide] | 32.1 | 41.9 | 58.4
NC(=O)CNCCC(c1ccccc1)c1ccccc1 [N-(3,3-Diphenylpropyl)glycinamide] | 9.09 | 27.2 | 45.5
O=c1[nH]c(=O)n(C2CCCO2)cc1F (stereo not drawn) [Tegafur] | 45.2 | 43.4 | 67.1
CCN1CCc2nc(N)oc2CC1 [B-HT 933 dihydrochloride] | 42.5 | 41.6 | 64.6
COc1ccc(CCN(C)CCCC(C#N)(c2ccc(OC)c(OC)c2)C(C)C)cc1OC (racemic) [(±)-Verapamil hydrochloride] | 55.2 | 42 | 67.8
C[n+]1cc2c3c(ccc2c2ccc4cc5c(cc4c21)OCO5)OCO3 [Sanguinarine chloride] | 73.4 | 48.9 | 60.6

Complete entries from above. Values in the order: general growth inhibition [1] [%] | growth inhibition [2] [%] | growth inhibition [3] [%]
Cn1ccnc1 [1-Methylimidazole] reads 51.2 | 38.9 | 61.4
CCN1CCc2nc(N)oc2CC1 [B-HT 933 dihydrochloride] reads 42.5 | 41.6 | 64.6

Additional structures:

Compound | general growth inhibition [1] [%] | growth inhibition [2] [%] | growth inhibition [3] [%]
O=C(O)C1=CCNCC1 [Isoguvacine hydrochloride] | 24 | 23.5 | 47.3
CC(C)c1c(C(=O)Nc2ccccc2)c(-c2ccccc2)c(-c2ccc(F)cc2)n1CC[C@@H](O)C[C@@H](O)CC(=O)O [Atorvastatin calcium salt trihydrate] | 84.3 | 79.8 | 77.2
CCN(CC)CCCC(C)Nc1ccnc2cc(Cl)ccc12 (stereo not drawn) [Chloroquine diphosphate] | 36.1 | 45.9 | 60.8
CC(CN(C)C)CN1c2ccccc2CCc2ccccc21 (stereo not drawn) [Trimipramine maleate] | 56.3 | 45.8 | 62.6
C[C@H]1C[C@H]2[C@@H]3CCC4=CC(=O)C=C[C@]4(C)[C@@]3(Cl)[C@@H](O)C[C@]2(C)[C@@]1(O)C(=O)CO [Beclomethasone] | 22.5 | 26.8 | 52
Cc1cnc(NC(=O)C2=C(O)c3ccccc3S(=O)(=O)N2C)s1 [Meloxicam sodium] | 43.2 | 34.7 | 57.7
CC(=O)[C@H]1CC[C@H]2[C@@H]3CCC4=CC(=O)CC[C@]4(C)[C@H]3CC[C@]12C [Progesterone] | 83.6 | 76.3 | 79.5
CC/C(=C(\c1ccccc1)c1ccc(OCCN(C)C)cc1)c1ccccc1 [Tamoxifen] | 85.5 | 82 | 73.6
Cc1nc2c([nH]1)c(=O)n(C)c(=O)n2Cc1ccco1 [Furafylline] | 37.7 | 44.2 | 65.4
CNC[C@H](O)c1ccc(O)c(O)c1 [(-)-Epinephrine bitartrate] | 36.7 | 36.1 | 52.9
Cc1cc(C(C)(C)C)cc(C)c1CC1=NCCN1 [Xylometazoline hydrochloride] | 54.3 | 46.2 | 61
Nc1nc2c(ncn2[C@@H]2O[C@H](CO)[C@@H](O)[C@@H]2O)c(=O)[nH]1 [Ara-G hydrate] | 56.9 | 49.2 | 70.5
CCCCNc1cc(C(=O)O)cc(S(N)(=O)=O)c1Oc1ccccc1 [Bumetanide] | 22.1 | 28.7 | 34.9
N=C(N)NCCCCNC(=N)N [Arcaine sulfate] | 38.9 | 33.8 | 45.5
c1ccc(C2CN3CCSC3=N2)cc1 (stereo not drawn) [Tetramisole hydrochloride] | 9.35 | 13.3 | 34.1
CN(C)CCOC(c1ccccc1)c1ccccc1 [Diphenhydramine hydrochloride] | 31.8 | 49.6 | 62.1
OCCN1CCN(CCCN2c3ccccc3Sc3ccc(C(F)(F)F)cc32)CC1 [Fluphenazine dihydrochloride] | -4.14 | -15.6 | 22.5
Nc1ncnc2c1c(-c1ccc(Oc3ccccc3)cc1)cn2C1CCCC1 | 54.2 | 35.7 | 77.6
S=c1[nH]c(-c2ccccc2)cn1-c1ccccc1 | 41.8 | 45 | 44.4
CC(N/C(=N\C#N)Nc1ccncc1)C(C)(C)C (stereo not drawn) [Pinacidil] | 44.1 | 44.2 | 58.5
O=C(/C=C/c1ccc(O)cc1)c1ccc(O)cc1O [Isoliquiritigenin] | 36.8 | 16.8 | 32.8
CCCCS(=O)(=O)N[C@@H](Cc1ccc(OCCCCC2CCNCC2)cc1)C(=O)O [Tirofiban hydrochloride monohydrate] | 52.5 | 36.1 | 65.9

Compound | general growth inhibition [1] [%] | growth inhibition [2] [%] | growth inhibition [3] [%]
N=c1nc(N2CCCCC2)cc(N)n1O [Minoxidil] | 36.1 | 42.4 | 64.1
CC[C@@]1(O)C(=O)OCc2c1cc1n(c2=O)Cc2cc3c(CN(C)C)c(O)ccc3nc2-1 [Topotecan hydrochloride hydrate] | 47.6 | 48.1 | 67.6
CN(C)CCC(c1ccc(Cl)cc1)c1ccccn1 (racemic) [(±)-Chlorpheniramine maleate] | 41.8 | 36.9 | 55.1
CCCCc1oc2ccccc2c1C(=O)c1cc(I)c(OCCN(CC)CC)c(I)c1 [Amiodarone hydrochloride] | 76.5 | 67.4 | 72.6
O=C(NCCN1CCOCC1)c1ccc(Cl)cc1 [Moclobemide] | 56.2 | 44 | 70.9
CCCCNC(=O)NS(=O)(=O)c1ccc(C)cc1 [Tolbutamide] | 48.3 | 47.8 | 63.1
O=C(OCCN1CCOCC1)C1(c2ccccc2)CCCCC1 | 36.5 | 41.2 | 60
NCCSSCCN [Cystamine dihydrochloride] | 35 | 41.6 | 56.2
Cn1c(=O)c2[nH]c(-c3ccc(S(=O)(=O)O)cc3)nc2n(C)c1=O [8-(p-Sulfophenyl)theophylline] | 87.6 | 79 | 84.2
C#CCN(C)CCCOc1ccc(Cl)cc1Cl [Clorgyline hydrochloride] | 47.3 | 45.4 | 72.6
N[C@@H](Cn1ccc(=O)c(O)c1)C(=O)O [L-Mimosine from Koa hoale seeds] | 53.1 | 51.3 | 67.9
Nc1ccn([C@@H]2O[C@H](CO)[C@@H](O)C2(F)F)c(=O)n1 [Gemcitabine hydrochloride] | 45 | 46.1 | 63.8
O=C(O)c1cc(=O)c2ccccc2[nH]1 [Kynurenic acid] | 32 | 38.9 | 47.7
CC(C)c1cccc(C(C)C)c1N1C(=O)c2ccc(O)cc2C1=O | 86.1 | 81.7 | 69.6
CCCc1c(-c2ccc(O)cc2)nn(-c2ccc(O)cc2)c1-c1ccc(O)cc1 [1,3,5-tris(4-hydroxyphenyl)-4-propyl-1H-pyrazole] | 21.9 | 15.6 | 42.5
CCCCCCCCCC[Si](C)(C)CCC(=O)NC(Cc1ccc(C)cc1)c1ccccc1 (stereo not drawn) [Sandoz 58-035] | 46.2 | 36.7 | 53
Clc1cccc(Cl)c1NC1=NCCN1 [Clonidine hydrochloride] | 42.1 | 42.6 | 63.4
CNC(=O)[C@H]1O[C@@H](n2cnc3c(NCc4cccc(I)c4)ncnc32)[C@H](O)[C@@H]1O | 34.1 | 41.1 | 66.4
COCCOC(=O)C1=C(C)NC(C)=C(C(=O)OC(C)C)C1c1cccc([N+](=O)[O-])c1 (stereo not drawn) [Nimodipine] | 46.9 | 39.2 | 38.5
O=C1CN(/N=C/c2ccc(-c3ccc([N+](=O)[O-])cc3)o2)C(=O)N1 [Dantrolene sodium] | 22.8 | 27.7 | 43.3
CCCN(CCc1ccccc1)C1CCc2c(O)cccc2C1 (racemic) [(±)-PPHT hydrochloride] | 48.2 | 25.4 | 62.6
CN(C)c1ccccc1CN1CCCN(Cc2ccccc2N(C)C)C1c1ccncc1 | 52.5 | 50.5 | 68.4

Structural class, the compounds so far with an aryl methoxy group.
Compound | general growth inhibition [1] [%] | growth inhibition [2] [%] | growth inhibition [3] [%]
COc1ccc(Br)cc1S(=O)(=O)NC(=O)/C=C/c1ccccc1Cc1ccc2ccccc2c1 | 36.5 | 21.2 | 20.9
COc1ccc(CCN(C)CCCC(C#N)(c2ccc(OC)c(OC)c2)C(C)C)cc1OC (racemic) [(±)-Verapamil hydrochloride] | 55.2 | 42 | 67.8
